Source: the supplement of paper PMC5770031
Counter-ions that a name gives are not always drawn. The list shows a part of the results. Single values are uncertain here, since repeats match poorly.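 Flies heterozygous for the ATM8 allele over a balancer chromosome carrying normal ATM were mated with each other on treated food. Parents laid eggs for 5–6 days and the young then developed for about 12 days, so both parents and larvae ate the compound. The read-out is the share of all emerged adults that carry two ATM8 copies, compared with 2% DMSO control vials. The paper called compounds neutral at 10–20% such offspring, harmful below 10%, and helpful above 20%.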 Peptide text beside a SMILES is read from it.

test system: Drosophila melanogaster ATM8 (temperature-sensitive ATM allele); test: fraction of eclosed F1 progeny that are homozygous ATM8 (rescue of developmental lethality); higher = more rescue of ATM8 developmental lethality; extreme values may be limits of the assay; conditions: compound concentration applied to food 0.2 mM; 21 °C

First: NCc1cccnc1
Second: CNCCc1ccccn1
The “fraction of eclosed F1 progeny that are homozygous ATM8” value (from here on “fraction”) of the first is lower: 0.12 for the first, 0.361 for the second.

First: NCCCCCC(=O)O
Second: CCCCCCCC/C=C\CCCCCCCC(=O)O.NCCO
The “fraction” value of the first is lower: 0.103 for the first, 0.178 for the second.

First: CC1=C(C)C(=O)C(C(CCCCCC(=O)O)c2ccccc2)=C(C)C1=O (stereo unspecified)
Second: CC(C)=CCC1=C(O)C(=O)c2ccccc2C1=O
The “fraction” value of the first is lower: 0 for the first, 0.258 for the second.

First: CC=CC(=O)N(CC)c1ccccc1C
Second: CCOC(=O)Nc1nc2ccccc2[nH]1
The “fraction” value of the first is higher: 0.219 for the first, 0.0217 for the second.

First: CC1CC2C3CCC4=CC(=O)C=CC4(C)C3(F)C(O)CC2(C)C1C(=O)CO (stereo unspecified)
Second: CC1(C)O[C@@H]2C[C@H]3[C@@H]4C[C@H](F)C5=CC(=O)C=C[C@]5(C)[C@@]4(F)[C@@H](O)C[C@]3(C)[C@]2(C(=O)CO)O1
The “fraction” value of the first is lower: 0.0978 for the first, 0.104 for the second.

First: CC1(C)CC2C1CC[C@]1(C)CCC3C(C(=O)O)CC(=O)O[C@@]32C1 (stereo partly specified) [3-HYDROXY-4-(SUCCIN-2-YL)-CARYOLANE delta-LACTONE]
Second: CC(=O)O[C@]1(C(C)=O)CC[C@H]2[C@@H]3C=C(Cl)C4=CC(=O)CC[C@]4(C)[C@H]3CC[C@@]21C
The “fraction” value of the first is higher: 0.3 for the first, 0.2 for the second.

First: Cc1cc(O)c(C(=O)N[C@@H](C(=O)N[C@@H]2C(=O)N3C(C(=O)O)=C(CSc4nnnn4C)CS[C@H]23)c2ccc(O)cc2)cn1
Second: O=C(O)C1=C(CSc2nnnn2CS(=O)(=O)O)CS[C@@H]2[C@H](NC(=O)[C@H](O)c3ccccc3)C(=O)N12
The “fraction” value of the first is higher: 0.0312 for the first, 0 for the second.

First: CCN(CC)C(C)CN1c2ccccc2Sc2ccccc21 (stereo unspecified)
Second: CCCCC1C(=O)N(c2ccccc2)N(c2ccc(O)cc2)C1=O (stereo unspecified)
The “fraction” value of the first is lower: 0.0909 for the first, 0.171 for the second.

First: CCCNC(=O)NS(=O)(=O)c1ccc(Cl)cc1
Second: COc1ccc(Cl)cc1C(=O)NCCc1ccc(S(=O)(=O)NC(=O)NC2CCCCC2)cc1
The “fraction” value of the first is lower: 0.0789 for the first, 0.305 for the second.

First: Clc1cccc(Cl)c1NC1=NCCN1
Second: CN[C@H]1CC[C@@H](c2ccc(Cl)c(Cl)c2)c2ccccc21
The “fraction” value of the first is lower: 0.0889 for the first, 0.194 for the second.

Compared with `CO[C@H]1/C=C/O[C@@]2(C)Oc3c(C)c(O)c4c(O)c(c5c(nc6cc(C)ccn65)c4c3C2=O)NC(=O)/C(C)=C\C=C\[C@H](C)[C@H](O)[C@@H](C)[C@@H](O)[C@@H](C)[C@H](OC(C)=O)[C@@H]1C`, `CC(C)=CCc1c2c(c3occ(-c4ccc(O)c(O)c4)c(=O)c3c1O)C=CC(C)(C)O2` is lower in “fraction” value: 0.298 for the first, 0.176 for the second.

Going from `CCN(CC)C(=O)C1(c2ccccc2)CC1CN` (stereo unspecified) to `CCN(CC)CCOCCOC(=O)C1(c2ccccc2)CCCC1`, the “fraction” value falls from 0.19 to 0.0294.

First: Cc1cc(C(C)(C)C)cc(C)c1CC1=NCCN1
Second: Cc1cc2cc3c(C)cc(=O)oc3c(C)c2o1
The “fraction” value of the first is higher: 0.265 for the first, 0.25 for the second.

Going from `CCN(CCCCOC(=O)c1ccc(OC)c(OC)c1)C(C)Cc1ccc(OC)cc1` (stereo unspecified) to `CCCCOc1cc(C(=O)OCCN(CC)CC)ccc1N`, the “fraction” value falls from 0.114 to 0.

Going from `CC(C)(CO)[C@@H](O)C(=O)NCCC(=O)O` [PANTOTHENIC ACID(d) Na salt] to `NCCC(=O)N[C@@H](Cc1c[nH]cn1)C(=O)O`, the “fraction” value falls from 0.186 to 0.108.

First: CC#CCn1c(N2CCC[C@@H](N)C2)nc2c1c(=O)n(Cc1nc(C)c3ccccc3n1)c(=O)n2C
Second: COc1cc2nc(N3CCN(C(=O)C4COc5ccccc5O4)CC3)nc(N)c2cc1OC (stereo unspecified)
The “fraction” value of the first is higher: 0.385 for the first, 0.135 for the second.

Going from `O=C(CCBr)N1CCN(C(=O)CCBr)CC1` to `O=C(NCCCN1CCOCC1)c1ccc(Cl)cc1`, the “fraction” value falls from 0.0625 to 0.04.

Going from `N[C@H]1CONC1=O` to `CC1C(=O)OC2C1CCC1(C)CCC(=O)C(C)C21` (stereo unspecified), the “fraction” value falls from 0.279 to 0.0678.

Compared with `COc1cc(OC)c2ccc(=O)oc2c1`, `COc1cc(O)c2c(=O)c(OC)c(-c3ccc(OC)c(OC)c3)oc2c1` is higher in “fraction” value: 0.0822 for the first, 0.205 for the second.

Going from `COC(=O)C1=CO[C@@H](O[C@@H]2O[C@H](CO)[C@@H](O)[C@H](O)[C@H]2O)[C@H]2[C@@H]1C(=O)C[C@@H]2C` to `OC[C@@H](O)[C@@H](O[C@@H]1O[C@H](CO)[C@@H](O)[C@H](O)[C@H]1O)[C@H](O)[C@@H](O)CO`, the “fraction” value rises from 0.106 to 0.314.

Going from `COC(=O)C[C@H]1C2(C)CC34OC5(C)O[C@@]6([C@H](OC(C)=O)C(OC(C)=O)[C@]7(C)C(/C(=C(/O)C(C)C)C(=O)O[C@H]7c7ccoc7)[C@@]6(O5)[C@H](OC(C)=O)[C@@]3(O)C2OC(=O)C(C)C)[C@]14C` (stereo partly specified) to `CCC(C)C(=O)O[C@@H]1C[C@@]2(C)[C@H](c3ccoc3)OC(=O)CC23OC2(C)O[C@]14[C@]1(C)[C@@H](CC(=O)OC)C5(C)CC1(O)[C@](O)(C5OC(=O)C1(C)OC1C)[C@@H](OC(C)=O)[C@]34O2` (stereo partly specified), the “fraction” value rises from 0.139 to 0.24.

Going from `C[C@@H]1O[C@@H](O[C@H]2CC[C@]3(C=O)[C@H]4CC[C@]5(C)[C@@H](C6=CC(=O)OC6)CC[C@]5(O)[C@@H]4CC[C@]3(O)C2)[C@H](O)[C@H](O)[C@H]1O` to `CC(=O)C1CCC2C3CC=C4CC(OS(=O)(=O)O)CCC4(C)C3CCC12C` (stereo unspecified), the “fraction” value falls from 0.2 to 0.19.

Going from `CC(=O)Nc1ccc(OC(=O)c2ccccc2O)cc1` to `CC(C)Oc1ccc2c(=O)c(-c3ccccc3)coc2c1`, the “fraction” value rises from 0.0238 to 0.0303.

First: O=C(O)c1cc(=O)c(O)c2c(O)c(O)c(O)cc2c1
Second: O=c1c(O)c(-c2ccc(O)cc2)oc2cc(O)cc(O)c12
The “fraction” value of the first is lower: 0.0536 for the first, 0.25 for the second.

Compared with `CCCCCCCCCC[C@H](C(=O)O)[C@]1(C(=O)O)CCC(=O)O1`, `CCCCCCNC(=O)n1cc(F)c(=O)[nH]c1=O` is higher in “fraction” value: 0.0714 for the first, 0.25 for the second.

Compared with `CC1(C)C2CC(=O)[C@]3(C)C(CC[C@@]4(C)[C@H](c5ccoc5)OC(=O)C5OC543)[C@@]2(C)[C@@H](O)C[C@H]1O` (stereo partly specified), `CC(=O)O[C@]1(C)CC[C@@]23C[C@H]1C(C)(C)[C@@H]2CC[C@H]3C` is lower in “fraction” value: 0.137 for the first, 0.0938 for the second.

Going from `COc1ccc(-c2oc3cc(OC)c(OC)c(OC)c3c(=O)c2OC)cc1OC` to `COc1cc(O)c2c(=O)cc(C)oc2c1CC=C(C)C`, the “fraction” value falls from 0.162 to 0.128.

First: O=C(O)c1ccc[n+]([O-])c1
Second: CNc1ccccc1C(=O)O
The “fraction” value of the first is higher: 0.0984 for the first, 0.0556 for the second.

First: NC[C@H]1O[C@H](O[C@H]2[C@H](O)[C@@H](O[C@H]3O[C@H](CO)[C@@H](O)[C@H](N)[C@H]3O)[C@H](N)C[C@@H]2N)[C@H](N)C[C@@H]1O
Second: C[C@@H]1C/C=C/C=C/C=C/C=C/[C@H](O[C@@H]2O[C@H](C)[C@@H](O)[C@H](N)[C@@H]2O)C[C@@H]2O[C@](O)(C[C@@H](O)C[C@H]3O[C@@H]3/C=C/C(=O)O1)C[C@H](O)[C@H]2C(=O)O
The “fraction” value of the first is higher: 0.0625 for the first, 0.0312 for the second.

Going from `O=C(O)C1=CC(=C(c2ccc(O)c(C(=O)O)c2)c2ccc(O)c(C(=O)O)c2)C=CC1=O` to `O=C1c2ccccc2C(=O)c2c(O)c(O)cc(O)c21`, the “fraction” value rises from 0.0444 to 0.293.

Compared with `O=c1cc(-c2ccccc2)oc2ccccc12`, `O=C1C=CC(=O)c2ccccc21` is lower in “fraction” value: 0.245 for the first, 0.105 for the second.

Compared with `O=[N+]([O-])C(Br)(CO)CO`, `C[N+](C)(C)CC(O)CC(=O)[O-]` (stereo unspecified) is lower in “fraction” value: 0.163 for the first, 0.0357 for the second.

Compared with `CC(C(O)c1ccc(O)cc1)N1CCC(Cc2ccccc2)CC1` (stereo unspecified), `CC(C)[N+]1(C)[C@@H]2CC[C@H]1C[C@@H](OC(=O)C(CO)c1ccccc1)C2` (stereo partly specified) is lower in “fraction” value: 0.22 for the first, 0 for the second.

Compared with `CC(C)[C@H](N)C(=O)OCCOCn1cnc2c(=O)nc(N)[nH]c21`, `CCCOc1ccccc1-c1nc2[nH]nnc2c(=O)[nH]1` is lower in “fraction” value: 0.341 for the first, 0.265 for the second.

Compared with `COC1=C[C@@H]2[C@@H]3Cc4ccc(OC)c(O)c4[C@]2(CCN3C)CC1=O`, `CN1C[C@H](C(=O)N[C@]2(C)O[C@@]3(O)[C@@H]4CCCN4C(=O)[C@H](Cc4ccccc4)N3C2=O)C=C2c3cccc4[nH]cc(c34)C[C@H]21` is higher in “fraction” value: 0.0244 for the first, 0.0769 for the second.

Compared with `COc1cc(NS(=O)(=O)c2ccc(N)cc2)ncn1`, `Nc1ccc(S(=O)(=O)Nc2nccs2)cc1` is higher in “fraction” value: 0.0588 for the first, 0.114 for the second.

Compared with `COC(=O)N/N=C/c1c[n+]([O-])c2ccccc2[n+]1[O-]`, `COC1=CC(=O)C(O)=C/C1=C\C=C\c1ccccc1` is lower in “fraction” value: 0.225 for the first, 0.121 for the second.

First: CN(C(=O)CN(CCO)CC(=O)N(C)C(C)(C)Cc1ccccc1)C(C)(C)Cc1ccccc1
Second: COC(=O)[C@H](Cc1ccccc1)NC(=O)[C@@H](N)CC(=O)O (H-Asp-Phe-OMe)
The “fraction” value of the first is lower: 0.113 for the first, 0.346 for the second.

First: CCN(Cc1cccc(S(=O)(=O)O)c1)c1ccc(C(=C2C=CC(=[N+](CC)Cc3cccc(S(=O)(=O)O)c3)C=C2)c2ccc(O)cc2S(=O)(=O)[O-])cc1
Second: Cc1ccc(-c2cc(C(F)(F)F)nn2-c2ccc(S(N)(=O)=O)cc2)cc1
The “fraction” value of the first is lower: 0.075 for the first, 0.17 for the second.

Going from `CC#C[C@]1(O)CC[C@H]2[C@@H]3CCC4=CC(=O)CCC4=C3[C@@H](c3ccc(N(C)C)cc3)C[C@@]21C` to `O=C(O)[C@@H]1[C@H]2C[C@H]3c4[nH]c5ccccc5c4CCN3C[C@@H]2CC[C@@H]1O`, the “fraction” value rises from 0.0333 to 0.0513.

First: CC(=O)Nc1c(I)cc(I)c(C(=O)O)c1I
Second: CCOC(=O)C(Cc1ccc(O)cc1)NC(C)=O (stereo unspecified)
The “fraction” value of the first is higher: 0.278 for the first, 0.222 for the second.

Compared with `CC(=O)Nc1nnc(S(N)(=O)=O)s1`, `CO/N=C(\C(=O)N[C@@H]1C(=O)N2C(C(=O)O)=C(COC(C)=O)CS[C@H]12)c1csc(N)n1` is higher in “fraction” value: 0.111 for the first, 0.162 for the second.

Compared with `O=C(CCCl)NCCc1ccccc1`, `COc1cc(CNC(=O)CCCC/C=C/C(C)C)ccc1O` is lower in “fraction” value: 0.154 for the first, 0.133 for the second.

Compared with `COC(=O)c1c(OC)cc2c(c1C)Oc1c(Cl)c(O)c(Cl)c(C)c1C(=O)O2`, `CC[C@H]1OC(=O)[C@H](C)[C@@H](O[C@H]2C[C@@](C)(OC)[C@@H](O)[C@H](C)O2)[C@H](C)[C@@H](O[C@@H]2O[C@H](C)C[C@H](N(C)C)[C@H]2O)[C@](C)(O)C[C@@H](C)CN(C)[C@H](C)[C@@H](O)[C@]1(C)O` is higher in “fraction” value: 0.156 for the first, 0.25 for the second.

Going from `C[C@]12CC[C@@H]3c4ccc(O)cc4C[C@@H](CCCCCCCCC[S+]([O-])CCCC(F)(F)C(F)(F)F)[C@H]3[C@@H]1CC[C@@H]2O` (stereo partly specified) to `C=C[C@](C)(O)CC[C@@H]1[C@@]2(C)CCCC(C)(C)[C@@H]2CC[C@@]1(C)O`, the “fraction” value rises from 0.0294 to 0.0625.

`NCC(CC(=O)O)c1ccc(Cl)cc1` (racemic) was tested, and the “fraction” value was 0.0784.
